Measured values from paper doi:10.1101/2023.04.28.23289152.
No constants are given. Whether binding was seen depends on the method and setting. Binding seen in cells or lysates may run through a third protein. Some results given as binding are weak or reduced against the parent protein; the word gives no strength.

Chains of the proteins cited; added tags and fusions are not shown. Lines headed by an entry give the natural chain unless they say otherwise; changes in a name come on top.
UniProt P84077: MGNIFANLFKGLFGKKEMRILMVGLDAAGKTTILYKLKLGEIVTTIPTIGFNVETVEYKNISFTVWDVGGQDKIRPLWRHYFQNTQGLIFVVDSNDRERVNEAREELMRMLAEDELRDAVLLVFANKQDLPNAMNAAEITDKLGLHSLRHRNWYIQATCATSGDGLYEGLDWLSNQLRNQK

Key:
[1] = biological target: ARF1 WT (pCMV6-hARF1-myc-FLAG) (human) (UniProt P84077); assay: co-IP
[2] = biological target: ARF1 R99C (pCMV6-hARF1-R99C-myc-FLAG) (human) (UniProt P84077); assay: co-IP

Substance: ARF1 WT (pCMV6-hARF1-myc-FLAG) (from UniProt P84077 1-181) (enzyme)
- binding [1]: binds

Substance: ARF1 R99C (pCMV6-hARF1-R99C-myc-FLAG) (from UniProt P84077 1-181) (enzyme)
- binding [2]: binds
